Patent US20100285957A1, “THIAZOLYLOXYPHENYLAMIDINES OR THIADIAZOLYLOXYPHENYLAMIDINES AND THEIR USE AS FUNGICIDES” (Bayer CropScience AG, priority 2007, published 2010)
Some results were stated once for a whole list of compounds, not compound by compound.

Tests used:
Format in all cases: in vivo
[1] = tested on: Sphaerotheca fuliginea; experiment: Sphaerotheca test (cucumber)/protective; conditions: 100 ppm active substance, protective, evaluation 7 days after inoculation
Description: Sphaerotheca Test (Cucumber)/Protective [table] To prepare a suitable active substance composition, 1 part by weight of active substance is mixed with the given amounts of solvents and emulsifier and the concentrate is diluted to the desired concentration using water. For the testing of protective effectiveness, young plants are sprayed with the active substance composition in the application rate given. After the spray coating has been dried on, the plants are inoculated with an aqueous suspension of spores of Sphaerotheca fuliginea. The plants are then placed in a greenhouse at approximately 23° C. and a relative humidity of approximately 70%. Evaluation is carried out 7 days after the inoculation. In this connection, 0% means a degree of effectiveness corresponding to that of the control, while a degree of effectiveness of 100% means that no infestation is observed.

[2] = tested on: Alternaria solani; experiment: Alternaria test (tomato)/protective; conditions: 500 ppm active substance, protective, evaluation 7 days after inoculation
Description: Alternaria Test (Tomato)/Protective [table] To prepare a suitable active substance composition, 1 part by weight of active substance is mixed with the given amounts of solvent and emulsifier and the concentrate is diluted to the desired concentration using water. For the testing of protective effectiveness, young tomato plants are sprayed with the active substance composition in the application rate given. 1 day after the treatment, the plants are inoculated with a suspension of the spores of Alternaria solani and then stand at 100% relative humidity and 20° C. for 24 h. Subsequently, the plants stand at 96% relative humidity and a temperature of 20° C. Evaluation is carried out 7 days after the inoculation. In this connection, 0% means a degree of effectiveness corresponding to that of the control, while a degree of effectiveness of 100% means that no infestation is observed.

[3] = tested on: Pyrenophora teres; experiment: Pyrenophora teres test (barley)/protective; conditions: 500 ppm active substance, protective, evaluation 7-9 days after inoculation
Description: Pyrenophora teres Test (Barley)/Protective
(§1) To prepare a suitable active substance composition, 1 part by weight of active substance is mixed with the given amounts of solvent and emulsifier and the concentrate is diluted to the desired concentration using water.
For the testing of protective effectiveness, young barley plants are sprayed with the active substance composition in the application rate given. 1 day after the treatment, the plants are inoculated with an aqueous suspension of the spores of Pyrenophora teres and then remain at 100% relative humidity and 20° C. for 48 h. Subsequently, the plants are placed in a greenhouse at 80% relative humidity and a temperature of 20° C.
Evaluation is carried out 7-9 days after the inoculation. In this connection, 0% means a degree of effectiveness corresponding to that of the control, while a degree of effectiveness of 100% means that no infestation is observed.

[4] = tested on: Blumeria graminis f.sp. hordei; experiment: Blumeria graminis test (barley)/protective; conditions: 1000 ppm active substance, protective, evaluation 7 days after inoculation
Description: Blumeria graminis Test (Barley)/Protective
as §1
For the testing of protective effectiveness, young plants are sprayed with the active substance composition in the application rate given.
After the spray coating has been dried on, the plants are dusted with spores of Blumeria graminis f.sp. hordei.
The plants are placed in a greenhouse at a temperature of approximately 20° C. and a relative humidity of approximately 80%, in order to encourage the development of mildew pustules.
Evaluation is carried out 7 days after the inoculation. In this connection, 0% means a degree of effectiveness corresponding to that of the control, while a degree of effectiveness of 100% means that no infestation is observed.

[5] = tested on: Puccinia recondita var. tritici; experiment: Puccinia test (wheat)/protective; conditions: 1000 ppm active substance, protective, evaluation 10 days after inoculation
Description: Puccinia Test (Wheat)/Protective
as §1
For the testing of protective effectiveness, young plants are sprayed with the active substance composition in the application rate given. After the spray coating has been dried on, the plants are sprayed with a suspension of the conidia of Puccinia recondita var. tritici. The plants remain in an incubation chamber at 20° C. and 100% relative humidity for 48 hours.
The plants are then placed in a greenhouse at a temperature of approximately 20° C. and a relative humidity of 80%, in order to encourage the development of rust pustules.
Evaluation is carried out 10 days after the inoculation. In this connection, 0% means a degree of effectiveness corresponding to that of the control, while a degree of effectiveness of 100% means that no infestation is observed.

[6] = tested on: Uromyces appendiculatus; experiment: Uromyces test (beans)/protective; conditions: 100 ppm active substance, protective, evaluation 10 days after inoculation
Description: Uromyces Test (Beans)/Protective [table] To prepare a suitable active substance composition, 1 part by weight of active substance is mixed with the given amounts of solvents and emulsifier and the concentrate is diluted to the desired concentration using water. For the testing of protective effectiveness, young plants are sprayed with the active substance composition in the application rate given. After the spray coating has been dried on, the plants are inoculated with an aqueous suspension of the spores of the bean rust pathogen Uromyces appendiculatus and then remain in an incubation chamber at approximately 20° C. and 100% relative humidity for 1 day. The plants are then placed in a greenhouse at approximately 21° C. and a relative humidity of approximately 90%. Evaluation is carried out 10 days after the inoculation. In this connection, 0% means a degree of effectiveness corresponding to that of the control, while a degree of effectiveness of 100% means that no infestation is observed.

[7] = tested on: Phakopsora pachyrhizi; experiment: Phakopsora test (soya)/protective; conditions: 100 ppm active substance, protective, evaluation 11 days after inoculation
Description: Phakopsora Test (Soya)/Protective
as §1
For the testing of protective effectiveness, young plants are sprayed with the active substance composition in the application rate given. After the spray coating has been dried on, the plants are inoculated with an aqueous suspension of the spores of Phakopsora pachyrhizi and then remain in an incubation chamber at approximately 20° C. and 80% relative humidity for 1 day.
Evaluation is carried out 11 days after the inoculation. In this connection, 0% means a degree of effectiveness corresponding to that of the control, while a degree of effectiveness of 100% means that no infestation is observed.

Cc1cc(Oc2nc(C3(C)CC3)cs2)c(C)cc1/N=C/N1CCCCC1 [Compound 23, 2,5-Dimethyl-4-{[4-(1-methylcyclopropyl)-1,3-thiazol-2-yl]oxy}-N-[(1E)-piperidin-1-ylmethyl-idene]aniline]
degree of effectiveness [1]: ≥ 70%
degree of effectiveness [2]: ≥ 70%
degree of effectiveness [3]: ≥ 70%
degree of effectiveness [4]: ≥ 70%
degree of effectiveness [5]: ≥ 70%

Cc1cc(Oc2nc(C3(C)CC3)ns2)c(C)cc1/N=C/N1CCCCC1 [Compound 11, 5-Dimethyl-4-{[3-(1-methylcyclopropyl)-1,2,4-thiadiazol-5-yl]oxy}-N-[(1E)-piperidin-1-yl-methylidene]aniline]
degree of effectiveness [1]: ≥ 70%
degree of effectiveness [6]: ≥ 70%
degree of effectiveness [7]: ≥ 80%
degree of effectiveness [3]: ≥ 70%
degree of effectiveness [4]: ≥ 70%
degree of effectiveness [5]: ≥ 70%

Cc1cc(Oc2nc(C3CC3)ns2)c(C)cc1/N=C/N1CCCCC1 [Compound 3, 4-[(3-Cyclopropyl-1,2,4-thiadiazol-5-yl)oxy]-2,5-dimethyl-N-[(1E)-piperidin-1-ylmethyl-idene]aniline]
degree of effectiveness [1]: ≥ 70%
degree of effectiveness [2]: ≥ 70%
degree of effectiveness [3]: ≥ 70%
degree of effectiveness [4]: ≥ 70%
degree of effectiveness [5]: ≥ 70%

Cc1cc(Oc2nc(C3(Cl)CC3)cs2)c(C)cc1/N=C/N1CCCCC1 [Compound 6, 4-{[4-(1-Chlorocyclopropyl)-1,3-thiazol-2-yl]oxy}-2,5-dimethyl-N-[(1E)-piperidin-1-ylmethyl-idene]aniline]
degree of effectiveness [1]: ≥ 70%
degree of effectiveness [6]: ≥ 70%
degree of effectiveness [2]: ≥ 70%
degree of effectiveness [3]: ≥ 70%
degree of effectiveness [4]: ≥ 70%
degree of effectiveness [5]: ≥ 70%
